# Results reported in the supplement of paper PMC12067093, “Discovery and optimisation of a covalent ligand for TRIM25 and its application to targeted protein ubiquitination” (Chemical Science, 2025).
# Chains of the proteins cited; added tags and fusions are not shown. Lines headed by an entry give the natural chain unless they say otherwise; changes in a name come on top.
# UniProt Q14807: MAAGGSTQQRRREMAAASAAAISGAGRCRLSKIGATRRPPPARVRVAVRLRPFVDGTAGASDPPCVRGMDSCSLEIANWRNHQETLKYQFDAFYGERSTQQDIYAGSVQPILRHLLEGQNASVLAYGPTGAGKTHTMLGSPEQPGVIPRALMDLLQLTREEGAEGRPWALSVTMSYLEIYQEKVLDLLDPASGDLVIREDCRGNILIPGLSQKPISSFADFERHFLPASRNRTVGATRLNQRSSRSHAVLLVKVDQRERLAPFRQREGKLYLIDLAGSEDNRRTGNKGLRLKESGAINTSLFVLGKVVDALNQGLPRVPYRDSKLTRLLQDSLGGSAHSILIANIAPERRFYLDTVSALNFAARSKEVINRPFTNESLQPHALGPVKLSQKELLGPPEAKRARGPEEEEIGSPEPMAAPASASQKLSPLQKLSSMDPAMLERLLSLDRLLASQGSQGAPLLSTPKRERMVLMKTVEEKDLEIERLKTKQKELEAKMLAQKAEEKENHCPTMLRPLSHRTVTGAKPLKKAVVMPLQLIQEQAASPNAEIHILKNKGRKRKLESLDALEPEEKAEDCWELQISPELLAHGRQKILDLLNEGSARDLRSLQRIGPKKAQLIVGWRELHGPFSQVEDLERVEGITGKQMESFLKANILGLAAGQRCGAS
# UniProt Q9H9L4: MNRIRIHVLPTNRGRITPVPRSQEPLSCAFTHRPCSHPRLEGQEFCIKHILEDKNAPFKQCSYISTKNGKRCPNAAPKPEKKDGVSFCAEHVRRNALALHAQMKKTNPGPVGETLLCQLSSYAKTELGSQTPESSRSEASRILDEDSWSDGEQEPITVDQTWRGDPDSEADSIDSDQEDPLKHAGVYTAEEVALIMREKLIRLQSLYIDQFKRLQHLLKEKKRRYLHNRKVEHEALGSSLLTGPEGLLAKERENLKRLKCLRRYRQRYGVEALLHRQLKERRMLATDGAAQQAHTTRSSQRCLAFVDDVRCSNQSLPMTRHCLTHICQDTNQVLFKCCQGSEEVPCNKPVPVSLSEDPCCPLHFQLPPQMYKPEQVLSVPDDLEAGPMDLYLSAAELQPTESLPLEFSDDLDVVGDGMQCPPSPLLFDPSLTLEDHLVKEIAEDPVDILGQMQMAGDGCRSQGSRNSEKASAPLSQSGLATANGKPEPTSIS
# UniProt Q7LBC6: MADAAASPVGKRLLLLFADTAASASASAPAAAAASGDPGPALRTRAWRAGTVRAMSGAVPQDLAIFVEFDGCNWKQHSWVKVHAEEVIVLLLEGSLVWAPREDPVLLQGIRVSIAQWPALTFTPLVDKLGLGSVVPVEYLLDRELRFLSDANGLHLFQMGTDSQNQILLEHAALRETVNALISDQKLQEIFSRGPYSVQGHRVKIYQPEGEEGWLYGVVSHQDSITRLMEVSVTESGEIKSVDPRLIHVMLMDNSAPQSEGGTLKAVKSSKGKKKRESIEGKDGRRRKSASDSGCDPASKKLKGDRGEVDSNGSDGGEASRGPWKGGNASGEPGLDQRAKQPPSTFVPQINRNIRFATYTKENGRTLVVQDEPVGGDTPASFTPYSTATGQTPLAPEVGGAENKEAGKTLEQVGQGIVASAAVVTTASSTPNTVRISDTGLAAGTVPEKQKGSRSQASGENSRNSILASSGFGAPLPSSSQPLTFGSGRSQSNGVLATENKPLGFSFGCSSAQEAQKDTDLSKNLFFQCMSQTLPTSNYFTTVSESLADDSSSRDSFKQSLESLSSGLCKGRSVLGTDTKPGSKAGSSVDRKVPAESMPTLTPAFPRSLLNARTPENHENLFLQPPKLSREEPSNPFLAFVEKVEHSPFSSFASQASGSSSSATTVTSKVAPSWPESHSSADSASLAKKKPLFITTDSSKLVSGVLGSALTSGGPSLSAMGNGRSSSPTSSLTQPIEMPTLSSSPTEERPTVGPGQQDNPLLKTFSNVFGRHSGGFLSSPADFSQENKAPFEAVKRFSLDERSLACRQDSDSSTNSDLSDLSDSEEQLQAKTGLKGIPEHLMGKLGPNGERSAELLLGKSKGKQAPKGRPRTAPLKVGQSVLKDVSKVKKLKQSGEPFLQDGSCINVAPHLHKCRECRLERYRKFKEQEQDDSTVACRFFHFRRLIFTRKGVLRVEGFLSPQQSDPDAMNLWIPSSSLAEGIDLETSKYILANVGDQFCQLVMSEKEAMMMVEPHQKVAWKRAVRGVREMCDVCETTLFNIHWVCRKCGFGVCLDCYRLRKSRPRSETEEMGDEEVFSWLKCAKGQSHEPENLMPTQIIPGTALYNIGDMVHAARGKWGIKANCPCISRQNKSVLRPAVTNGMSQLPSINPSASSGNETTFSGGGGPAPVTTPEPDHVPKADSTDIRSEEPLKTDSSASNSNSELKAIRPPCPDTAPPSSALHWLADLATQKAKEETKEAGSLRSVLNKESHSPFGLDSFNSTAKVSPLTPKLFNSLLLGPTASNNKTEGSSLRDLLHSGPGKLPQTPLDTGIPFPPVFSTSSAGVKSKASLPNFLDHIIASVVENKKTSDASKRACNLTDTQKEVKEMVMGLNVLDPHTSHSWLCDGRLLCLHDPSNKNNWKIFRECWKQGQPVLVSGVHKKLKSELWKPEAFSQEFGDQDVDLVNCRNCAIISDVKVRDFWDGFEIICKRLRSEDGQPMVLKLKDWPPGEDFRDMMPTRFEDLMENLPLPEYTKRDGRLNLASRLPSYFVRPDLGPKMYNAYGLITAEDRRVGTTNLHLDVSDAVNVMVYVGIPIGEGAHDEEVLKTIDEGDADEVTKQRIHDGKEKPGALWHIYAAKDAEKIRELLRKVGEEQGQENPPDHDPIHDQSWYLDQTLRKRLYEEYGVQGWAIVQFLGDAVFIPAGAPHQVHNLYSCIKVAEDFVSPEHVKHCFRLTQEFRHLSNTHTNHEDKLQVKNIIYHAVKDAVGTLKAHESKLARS
# UniProt Q8IYS2: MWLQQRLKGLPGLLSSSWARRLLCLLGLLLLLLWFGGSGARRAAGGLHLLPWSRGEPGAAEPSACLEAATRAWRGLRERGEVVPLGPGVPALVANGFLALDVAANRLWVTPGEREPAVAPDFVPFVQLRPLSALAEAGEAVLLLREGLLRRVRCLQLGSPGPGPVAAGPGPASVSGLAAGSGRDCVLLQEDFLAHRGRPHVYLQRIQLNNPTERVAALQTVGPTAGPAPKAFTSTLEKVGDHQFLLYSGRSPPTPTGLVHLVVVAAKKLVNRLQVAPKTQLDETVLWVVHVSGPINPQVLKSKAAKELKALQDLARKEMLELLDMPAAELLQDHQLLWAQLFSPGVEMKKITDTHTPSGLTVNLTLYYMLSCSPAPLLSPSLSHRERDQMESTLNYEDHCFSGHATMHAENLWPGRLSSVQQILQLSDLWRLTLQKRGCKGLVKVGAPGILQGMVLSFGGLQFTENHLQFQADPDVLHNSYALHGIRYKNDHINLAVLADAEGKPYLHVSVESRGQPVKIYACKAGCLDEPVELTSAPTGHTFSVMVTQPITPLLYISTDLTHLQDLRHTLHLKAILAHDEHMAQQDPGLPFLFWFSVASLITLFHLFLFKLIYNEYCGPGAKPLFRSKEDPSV
# UniProt O75164: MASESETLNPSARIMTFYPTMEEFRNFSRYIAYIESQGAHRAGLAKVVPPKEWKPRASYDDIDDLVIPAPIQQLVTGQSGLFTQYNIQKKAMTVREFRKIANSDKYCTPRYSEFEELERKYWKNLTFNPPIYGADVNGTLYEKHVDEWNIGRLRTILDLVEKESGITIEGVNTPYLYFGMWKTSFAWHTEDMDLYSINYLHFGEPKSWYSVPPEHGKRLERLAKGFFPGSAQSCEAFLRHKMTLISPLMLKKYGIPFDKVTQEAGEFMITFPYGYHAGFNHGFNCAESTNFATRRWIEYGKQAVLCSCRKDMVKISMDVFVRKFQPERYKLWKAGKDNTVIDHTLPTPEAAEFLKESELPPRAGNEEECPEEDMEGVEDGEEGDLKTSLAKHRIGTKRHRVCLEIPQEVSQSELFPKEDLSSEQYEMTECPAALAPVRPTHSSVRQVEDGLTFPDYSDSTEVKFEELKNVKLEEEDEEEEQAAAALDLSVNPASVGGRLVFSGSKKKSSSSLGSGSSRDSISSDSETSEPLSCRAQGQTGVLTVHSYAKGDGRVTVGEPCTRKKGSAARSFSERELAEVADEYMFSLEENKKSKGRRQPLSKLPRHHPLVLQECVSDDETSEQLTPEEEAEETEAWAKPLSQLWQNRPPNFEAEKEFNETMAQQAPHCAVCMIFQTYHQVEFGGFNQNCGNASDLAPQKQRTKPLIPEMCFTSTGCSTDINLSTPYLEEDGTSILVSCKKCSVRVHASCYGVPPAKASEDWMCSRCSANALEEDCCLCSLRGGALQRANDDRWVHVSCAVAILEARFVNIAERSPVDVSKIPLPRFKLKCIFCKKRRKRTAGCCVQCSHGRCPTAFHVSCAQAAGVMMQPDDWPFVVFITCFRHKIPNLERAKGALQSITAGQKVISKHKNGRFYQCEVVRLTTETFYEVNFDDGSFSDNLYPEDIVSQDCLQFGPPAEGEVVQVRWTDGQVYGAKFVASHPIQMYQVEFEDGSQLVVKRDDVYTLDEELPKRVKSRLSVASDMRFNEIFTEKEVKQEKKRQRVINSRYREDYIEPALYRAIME
# UniProt Q63ZY3: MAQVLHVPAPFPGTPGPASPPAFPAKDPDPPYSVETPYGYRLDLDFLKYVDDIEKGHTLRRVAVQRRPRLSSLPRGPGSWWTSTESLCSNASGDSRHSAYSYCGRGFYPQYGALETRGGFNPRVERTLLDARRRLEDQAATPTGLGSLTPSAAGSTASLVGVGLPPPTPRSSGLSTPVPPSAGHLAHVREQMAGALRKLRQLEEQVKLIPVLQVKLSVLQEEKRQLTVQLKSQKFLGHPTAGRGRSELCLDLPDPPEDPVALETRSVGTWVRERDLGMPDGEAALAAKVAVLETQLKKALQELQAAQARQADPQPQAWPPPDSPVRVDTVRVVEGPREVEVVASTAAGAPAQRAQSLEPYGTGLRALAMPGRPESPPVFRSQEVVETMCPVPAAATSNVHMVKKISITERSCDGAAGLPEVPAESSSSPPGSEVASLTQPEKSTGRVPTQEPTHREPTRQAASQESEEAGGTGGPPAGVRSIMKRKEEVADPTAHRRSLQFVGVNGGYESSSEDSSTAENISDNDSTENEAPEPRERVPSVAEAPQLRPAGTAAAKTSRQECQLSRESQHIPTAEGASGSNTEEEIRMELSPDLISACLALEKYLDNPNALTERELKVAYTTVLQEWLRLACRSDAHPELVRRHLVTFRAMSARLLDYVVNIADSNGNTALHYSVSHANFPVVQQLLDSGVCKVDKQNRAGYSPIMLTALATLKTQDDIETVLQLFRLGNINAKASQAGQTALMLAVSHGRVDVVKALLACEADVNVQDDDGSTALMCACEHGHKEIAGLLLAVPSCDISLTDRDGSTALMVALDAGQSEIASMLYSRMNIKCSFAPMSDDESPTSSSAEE
# UniProt O60674: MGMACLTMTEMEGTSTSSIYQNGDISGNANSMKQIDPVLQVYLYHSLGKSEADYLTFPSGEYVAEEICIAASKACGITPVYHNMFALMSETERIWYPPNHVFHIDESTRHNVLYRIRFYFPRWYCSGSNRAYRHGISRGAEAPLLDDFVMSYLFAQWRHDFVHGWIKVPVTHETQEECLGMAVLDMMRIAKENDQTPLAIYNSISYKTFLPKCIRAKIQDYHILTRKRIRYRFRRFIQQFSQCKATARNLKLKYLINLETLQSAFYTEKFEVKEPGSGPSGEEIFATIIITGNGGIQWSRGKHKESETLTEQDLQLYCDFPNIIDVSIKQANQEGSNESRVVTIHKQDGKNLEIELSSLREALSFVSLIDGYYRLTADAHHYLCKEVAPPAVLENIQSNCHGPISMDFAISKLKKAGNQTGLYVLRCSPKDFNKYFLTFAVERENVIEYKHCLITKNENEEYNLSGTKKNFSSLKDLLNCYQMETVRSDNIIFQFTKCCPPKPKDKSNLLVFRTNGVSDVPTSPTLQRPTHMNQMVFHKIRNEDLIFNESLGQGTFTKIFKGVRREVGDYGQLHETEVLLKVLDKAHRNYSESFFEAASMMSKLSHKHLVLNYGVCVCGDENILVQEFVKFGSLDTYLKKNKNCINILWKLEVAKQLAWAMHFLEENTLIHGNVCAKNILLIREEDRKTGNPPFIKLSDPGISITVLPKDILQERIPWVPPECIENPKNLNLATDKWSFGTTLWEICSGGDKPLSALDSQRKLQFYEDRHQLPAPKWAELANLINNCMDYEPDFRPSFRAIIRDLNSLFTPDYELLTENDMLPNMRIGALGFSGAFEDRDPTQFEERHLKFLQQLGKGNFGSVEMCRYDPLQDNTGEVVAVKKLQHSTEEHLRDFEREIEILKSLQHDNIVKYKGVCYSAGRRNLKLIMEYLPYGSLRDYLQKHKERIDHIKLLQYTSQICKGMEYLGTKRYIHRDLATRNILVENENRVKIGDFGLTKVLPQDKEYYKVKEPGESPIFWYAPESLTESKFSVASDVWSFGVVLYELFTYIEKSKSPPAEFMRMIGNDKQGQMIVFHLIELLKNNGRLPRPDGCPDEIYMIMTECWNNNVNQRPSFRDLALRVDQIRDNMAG
# Some of the results follow.
# Compound: Cc1cc(ccc1-c1ccccc1)C(=O)N1CCCN(CC1)C(=O)CCl [compound 10]
# Assay: probe-labelled cysteine peptide fold change vs DMSO (competition) (log2 fold change); higher = less target engagement (more negative = stronger competition)
# Settings: THP-1, incubation time: 4 h
# 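Also: competitive profiling in live THP-1 cells: cysteine peptides tagged with an iodoacetamide desthiobiotin (IA-DTB) probe, intensity after compound treatment relative to DMSO-treated cells.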
target,measurement,setting,value
KDM2B_Q8NHM5_665_QCIAPVLPHTAVCLVCGEAGKEDTVEEEEGK (UniProt Q8NHM5),probe-labelled cysteine peptide fold change,10 µM,-0.147
same,probe-labelled cysteine peptide fold change,50 µM,-0.266
KIF22_Q14807_508_ENHCPTMLRPLSHR (UniProt Q14807),probe-labelled cysteine peptide fold change,10 µM,-0.0544
same,probe-labelled cysteine peptide fold change,50 µM,-0.152
KDM3A_Q9Y4C1_225_TLQVNCEEIPALK (UniProt Q9Y4C1),probe-labelled cysteine peptide fold change,10 µM,-0.098
same,probe-labelled cysteine peptide fold change,50 µM,0.103
KANSL2_Q9H9L4_88_DGVSFCAEHVR (UniProt Q9H9L4),probe-labelled cysteine peptide fold change,10 µM,0.0254
same,probe-labelled cysteine peptide fold change,50 µM,0.0649
KDM3B_Q7LBC6_1212_AIRPPCPDTAPPSSALHWLADLATQK (UniProt Q7LBC6),probe-labelled cysteine peptide fold change,10 µM,-0.176
same,probe-labelled cysteine peptide fold change,50 µM,-0.341
KIAA2013_Q8IYS2_185_DCVLLQEDFLAHR (UniProt Q8IYS2),probe-labelled cysteine peptide fold change,10 µM,0.0174
same,probe-labelled cysteine peptide fold change,50 µM,0.278
KIF15_Q9NS87_949_CEQQMAK (UniProt Q9NS87),probe-labelled cysteine peptide fold change,10 µM,0.233
same,probe-labelled cysteine peptide fold change,50 µM,0.0255
KDM4A_O75164_430_EDLSSEQYEMTECPAALAPVRPTHSSVR (UniProt O75164),probe-labelled cysteine peptide fold change,10 µM,-0.634
same,probe-labelled cysteine peptide fold change,50 µM,-0.711
KDM2A_Q9Y2K7_913_ELCECMR (UniProt Q9Y2K7),probe-labelled cysteine peptide fold change,10 µM,0.0854
same,probe-labelled cysteine peptide fold change,50 µM,0.0749
KANK1_Q14678_589_SVEMCDK (UniProt Q14678),probe-labelled cysteine peptide fold change,10 µM,0.0398
same,probe-labelled cysteine peptide fold change,50 µM,0.202
KANK2_Q63ZY3_562_QECQLSR (UniProt Q63ZY3),probe-labelled cysteine peptide fold change,10 µM,-0.03
same,probe-labelled cysteine peptide fold change,50 µM,-0.579
JAK2_O60674_178_VPVTHETQEECLGMAVLDMMR (UniProt O60674),probe-labelled cysteine peptide fold change,10 µM,-0.094
same,probe-labelled cysteine peptide fold change,50 µM,0.027
KEAP1_Q14145_288_CEILQSDSR (UniProt Q14145),probe-labelled cysteine peptide fold change,10 µM,-0.267
same,probe-labelled cysteine peptide fold change,50 µM,-0.999
KIF20B_Q96Q89_80_ELESEGCVHILDSQTVVLK (UniProt Q96Q89),probe-labelled cysteine peptide fold change,10 µM,-0.0444
same,probe-labelled cysteine peptide fold change,50 µM,-0.089

# An excerpt of these results, with bars between the fields.
target | measurement | setting | value
KANSL2_Q9H9L4_88_DGVSFCAEHVR (UniProt Q9H9L4) | probe-labelled cysteine peptide fold change | 50 µM | 0.0649
KDM3B_Q7LBC6_1212_AIRPPCPDTAPPSSALHWLADLATQK (UniProt Q7LBC6) | probe-labelled cysteine peptide fold change | 10 µM | -0.176
